Measured values published in US8222244B2, “Staurosporine derivatives as inhibitors of FLT3 receptor tyrosine kinase activity” (Novartis AG, priority 2001, dated 2012).

How the values were obtained:
[1] = tested on: untransformed Ba/F3 cells
Procedure: (§1) To search for FLT3-targeted compounds, the applicant screened the inhibitory effects of several compounds on two different kinds of assays. • Tyrosine protein kinase assays with purified GST-Flt-3 were carried in a final volume of 30 μL containing 200-1800 ng of enzyme protein. The activity was assayed in the presence or absence of inhibitors, by measuring the incorporation of ^33P from [γ^33P] ATP into appropriate substrates. […] Cell lines expressing two different forms of mutated, activated FLT3 are used: Ba/F3-FLT3-ITD cells expressing a FLT3 mutant with an “Internal Tandem Duplication” (ITD) within the juxtamembrane domain of the receptor. Ba/F3-FLT3-D835Y cells expressing an FLT3 receptor containing a mutation converting […] at position 835 to Tyrosine.
(§2) A cell based assay is utilised to identify inhibitors of mutant FLT3 tyrosine kinase receptors.
(§3) The cell lines used for the initial screening are sublines of Ba/F3 cells that are engineered to express mutant or over-express wild-type (non-mutated) FLT3 following infection with a retrovirus expressing appropriate FLT3 cDNAs. The parent cell line, Ba/F3 is dependent on interleukin-3 for proliferation, and when deprived of IL-3, the cells rapidly cease proliferation and die. The retrovirus expresses FLT3 from the retrovirual LTR and the neo gene from an IRES site.

[2] = tested on: Ba/F3-FLT3-ITD cells; experiment: cells
Procedure: as §1, §2, §3

[3] = tested on: Ba/F3-FLT3-D835Y cells; experiment: cells; details: read-out: IC50, inhibition of proliferation
Procedure: as §1, §2, §3

IC50 ([2]; Ba/F3 FLT3-ITD, read-out: IC50, inhibition of proliferation): < 10 nM
IC50 [3]: < 10 nM
Structure (SMILES): CO[C@@H]1[C@H](N(C)C(=O)c2ccccc2)C[C@H]2O[C@]1(C)n1c3ccccc3c3c4c(c5c6ccccc6n2c5c31)C(=O)NC4 [MIDOSTAURIN, N-[(9S,10R,11R,13R)-2,3,10,11,12,13-hexahydro-10-methoxy-9-methyl-1-oxo-9,13-epoxy-1H,9H-diindolo[1,2,3-gh:3′,2′,1′-Im]pyrrolo[3,4-j][1,7]benzodiazonin-11-yl]-N-methylbenzamide]
did not inhibit growth at concentrations of up to [1]: > 500 nM
reversal of growth inhibitory effects by IL-3 ([2]; Ba/F3-FLT3-ITD cells, addition of high concentrations of IL-3): could be reversed
